Results published in the supplement of paper PMC10849652.
This is one part of the list.

Chains of the proteins cited; added tags and fusions are not shown. Lines headed by an entry give the natural chain unless they say otherwise; changes in a name come on top.
UniProt A6ZKI3: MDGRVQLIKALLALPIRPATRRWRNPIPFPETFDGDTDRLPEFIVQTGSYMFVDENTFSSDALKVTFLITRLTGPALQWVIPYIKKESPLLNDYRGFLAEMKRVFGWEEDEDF
UniProt Q9BUV0: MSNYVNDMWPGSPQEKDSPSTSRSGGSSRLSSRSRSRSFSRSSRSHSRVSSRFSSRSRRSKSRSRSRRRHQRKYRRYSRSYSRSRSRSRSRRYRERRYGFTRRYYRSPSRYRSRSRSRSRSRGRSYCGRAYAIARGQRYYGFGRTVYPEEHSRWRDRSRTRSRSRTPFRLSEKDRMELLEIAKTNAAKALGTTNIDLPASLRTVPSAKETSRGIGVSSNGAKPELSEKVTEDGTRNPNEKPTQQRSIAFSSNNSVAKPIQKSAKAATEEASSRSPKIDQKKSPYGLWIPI
UniProt Q9NQC3: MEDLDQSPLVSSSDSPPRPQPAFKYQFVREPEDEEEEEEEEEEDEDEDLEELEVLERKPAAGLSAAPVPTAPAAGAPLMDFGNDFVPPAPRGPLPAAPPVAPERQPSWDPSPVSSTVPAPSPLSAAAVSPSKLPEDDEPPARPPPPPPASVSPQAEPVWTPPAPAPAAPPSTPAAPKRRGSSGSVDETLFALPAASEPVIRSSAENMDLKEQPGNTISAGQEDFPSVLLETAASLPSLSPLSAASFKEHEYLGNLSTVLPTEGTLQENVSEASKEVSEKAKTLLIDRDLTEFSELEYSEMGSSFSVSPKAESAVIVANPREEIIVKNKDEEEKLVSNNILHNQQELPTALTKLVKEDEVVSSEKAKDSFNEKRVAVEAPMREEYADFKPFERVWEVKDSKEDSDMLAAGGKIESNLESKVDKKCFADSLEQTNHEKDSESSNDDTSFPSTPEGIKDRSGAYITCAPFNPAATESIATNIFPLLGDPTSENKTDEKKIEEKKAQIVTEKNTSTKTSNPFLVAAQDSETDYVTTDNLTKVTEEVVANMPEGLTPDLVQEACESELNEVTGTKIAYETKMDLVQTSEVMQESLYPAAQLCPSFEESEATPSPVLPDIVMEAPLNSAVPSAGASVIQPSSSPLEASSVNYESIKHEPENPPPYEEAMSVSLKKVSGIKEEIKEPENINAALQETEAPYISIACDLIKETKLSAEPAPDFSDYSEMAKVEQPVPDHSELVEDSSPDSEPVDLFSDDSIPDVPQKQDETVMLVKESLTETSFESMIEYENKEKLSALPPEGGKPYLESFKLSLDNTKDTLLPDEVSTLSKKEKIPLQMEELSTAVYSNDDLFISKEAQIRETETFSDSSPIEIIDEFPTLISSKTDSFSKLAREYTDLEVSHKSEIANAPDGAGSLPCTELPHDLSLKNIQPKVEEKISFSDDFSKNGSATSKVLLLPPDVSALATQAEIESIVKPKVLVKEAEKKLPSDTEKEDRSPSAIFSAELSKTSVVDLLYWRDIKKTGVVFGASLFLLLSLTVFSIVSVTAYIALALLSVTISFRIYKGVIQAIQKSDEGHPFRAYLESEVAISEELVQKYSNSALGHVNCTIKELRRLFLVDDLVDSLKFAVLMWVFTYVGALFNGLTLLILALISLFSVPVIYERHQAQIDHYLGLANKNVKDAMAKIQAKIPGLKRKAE
UniProt Q9UBS0: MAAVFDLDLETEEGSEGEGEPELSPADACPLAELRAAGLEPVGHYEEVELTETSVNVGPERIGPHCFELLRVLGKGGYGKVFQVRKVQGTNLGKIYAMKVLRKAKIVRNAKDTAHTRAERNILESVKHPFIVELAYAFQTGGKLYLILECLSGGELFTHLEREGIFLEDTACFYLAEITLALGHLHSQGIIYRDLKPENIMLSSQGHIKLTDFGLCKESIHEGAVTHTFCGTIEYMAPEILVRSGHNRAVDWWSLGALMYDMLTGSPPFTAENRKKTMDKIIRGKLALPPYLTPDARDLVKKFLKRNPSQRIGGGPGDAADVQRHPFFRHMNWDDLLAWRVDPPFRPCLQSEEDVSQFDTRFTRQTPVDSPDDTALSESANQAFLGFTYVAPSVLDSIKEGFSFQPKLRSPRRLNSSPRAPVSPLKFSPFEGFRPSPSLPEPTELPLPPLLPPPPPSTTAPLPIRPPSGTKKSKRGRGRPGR
UniProt Q86SG5: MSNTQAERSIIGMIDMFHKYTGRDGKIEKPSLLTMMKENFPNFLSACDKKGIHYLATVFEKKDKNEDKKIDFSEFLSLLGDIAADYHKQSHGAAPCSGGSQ
UniProt Q92681: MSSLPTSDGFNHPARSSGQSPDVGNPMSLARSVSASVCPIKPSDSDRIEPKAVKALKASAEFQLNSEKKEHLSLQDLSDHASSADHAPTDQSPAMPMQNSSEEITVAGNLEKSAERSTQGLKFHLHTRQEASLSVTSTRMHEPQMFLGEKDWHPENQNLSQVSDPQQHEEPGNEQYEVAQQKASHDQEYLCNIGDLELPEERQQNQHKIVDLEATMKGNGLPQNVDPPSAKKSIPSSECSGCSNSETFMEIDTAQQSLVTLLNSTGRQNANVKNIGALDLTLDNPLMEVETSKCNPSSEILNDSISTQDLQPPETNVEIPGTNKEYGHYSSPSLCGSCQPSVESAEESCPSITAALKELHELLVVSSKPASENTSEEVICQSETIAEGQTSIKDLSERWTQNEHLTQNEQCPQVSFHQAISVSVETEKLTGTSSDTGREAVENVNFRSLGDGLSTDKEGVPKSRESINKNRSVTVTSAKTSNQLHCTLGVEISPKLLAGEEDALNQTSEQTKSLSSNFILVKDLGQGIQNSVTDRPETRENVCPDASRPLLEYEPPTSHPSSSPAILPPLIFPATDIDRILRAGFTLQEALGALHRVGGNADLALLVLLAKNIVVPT
UniProt Q96EU6: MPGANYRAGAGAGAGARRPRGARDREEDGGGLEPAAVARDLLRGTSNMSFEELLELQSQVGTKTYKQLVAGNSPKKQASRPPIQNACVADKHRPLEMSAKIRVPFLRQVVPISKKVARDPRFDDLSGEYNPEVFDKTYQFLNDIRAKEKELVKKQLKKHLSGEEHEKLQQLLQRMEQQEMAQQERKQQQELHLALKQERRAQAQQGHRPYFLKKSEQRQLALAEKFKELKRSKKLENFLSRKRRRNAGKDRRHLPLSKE
UniProt P23297: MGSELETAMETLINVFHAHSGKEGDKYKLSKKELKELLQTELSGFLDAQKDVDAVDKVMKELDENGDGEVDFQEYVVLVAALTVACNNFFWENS
UniProt Q9BZR6: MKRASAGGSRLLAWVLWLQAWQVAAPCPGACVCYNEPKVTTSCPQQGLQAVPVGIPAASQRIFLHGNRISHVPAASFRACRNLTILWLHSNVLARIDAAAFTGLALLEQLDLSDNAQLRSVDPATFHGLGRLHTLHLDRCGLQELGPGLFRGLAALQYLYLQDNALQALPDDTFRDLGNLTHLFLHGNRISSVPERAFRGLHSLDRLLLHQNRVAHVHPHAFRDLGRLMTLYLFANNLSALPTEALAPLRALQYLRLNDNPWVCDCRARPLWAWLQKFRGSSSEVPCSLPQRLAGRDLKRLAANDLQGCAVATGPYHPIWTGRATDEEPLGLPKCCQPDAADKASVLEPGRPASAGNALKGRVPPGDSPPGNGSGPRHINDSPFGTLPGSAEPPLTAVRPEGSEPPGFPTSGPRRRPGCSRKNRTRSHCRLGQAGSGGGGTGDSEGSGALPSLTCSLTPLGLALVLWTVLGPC
UniProt P80511: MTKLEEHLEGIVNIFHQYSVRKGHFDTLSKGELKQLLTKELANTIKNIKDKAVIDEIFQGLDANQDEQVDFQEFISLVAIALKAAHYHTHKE

Assays:
Test in all cases: log2 fold change, soluble protein after heating vs DMSO (PISA); higher = thermal stabilisation; K562 lysate, 10 uM; active = over 0.2 and 3.5 SD of the protein, either way, in both replicates (recomputed)
[1] = compound: CC(=O)c1cnc2ccc(-c3cc(Cl)c(O)c(Cl)c3)nc2c1N[C@H]1CC[C@H](CN(C)C)CC1
Procedure, shortened: (§1)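 Soluble protein was defined as the supernatant remaining after 21,000xg for 90 min, following pooling of heated aliquots and adjustment to 0.5% NP-40 at 4°C. Before that, crude K562 extract at 1 mg/mL protein in PBS pH 7.4 with 1 mM MgCl2 was treated with 10 μM compound for 30 min and heated for 3 min across 48°C-58°C. Quantification used TMTpro 16plex LC-MS/MS with channel sums equalised, and values are log-two fold changes in thermal stability relative to solvent controls from duplicates.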

ralimetinib = compound: CC(C)(C)Cn1c(N)nc2ccc(-c3[nH]c(C(C)(C)C)nc3-c3ccc(F)cc3)nc21 [ralimetinib]
Procedure, shortened: as §1

[2] = compound: CC(C)(O)CC(=O)NCCn1ccc2ncnc(Nc3ccc(Oc4cccc(C(F)(F)F)c4)c(Cl)c3)c21
Procedure, shortened: as §1

[3] = compound: CC(C)C1=C2N=C(C=C(N2N=C1)NCC3=CC=CC=C3)NCCCCCCN
Procedure, shortened: as §1

[4] = compound: CC1=C(C(CC(=O)N1)C2=CC=C(C=C2)C(F)(F)F)C(=O)NC3=C(C=C4C(=C3)C=NN4)F
Procedure, shortened: as §1

[5] = compound: CC1=C(C2=C(C=C1)C(=O)C3=CC=CC=C3N2CCCN)C
Procedure, shortened: as §1

[6] = compound: CC1=C(C=C(C=C1)NC(=O)C2=CC(=CC=C2)C(C)(C)C#N)NC3=CC4=C(C=C3)N=CN(C4=O)C
Procedure, shortened: as §1

[7] = compound: CC1=C(C=C(C=C1)NC(=O)C2=CC(=CC=C2)N(C)C)NC(=O)C3=CC=C(C=C3)O
Procedure, shortened: as §1

[8] = compound: CC1=CC=C(C=C1)SC2=C3C=C(SC3=CN=C2)C(=O)N
Procedure, shortened: as §1

[9] = compound: CCCS(=O)(=O)Nc1ccc(F)c(C(=O)c2c[nH]c3ncc(Cl)cc23)c1F
Procedure, shortened: as §1

[10] = compound: CC[C@@H]1C(=O)N(C)c2cnc(Nc3ccc(C(=O)NC4CCN(C)CC4)cc3OC)nc2N1C1CCCC1
Procedure, shortened: as §1

volasertib = compound: CC[C@@H]1C(=O)N(C)c2cnc(Nc3ccc(C(=O)N[C@H]4CC[C@H](N5CCN(CC6CC6)CC5)CC4)cc3OC)nc2N1C(C)C [volasertib]
Procedure, shortened: as §1

[11] = compound: CCn1c(C(=O)N(C2CC2)C2CC2)cc2c3c(ncn3C)c(Nc3cc(C)n(C)n3)nc21
Procedure, shortened: as §1

[12] = compound: CCn1cc(-c2ccnc3[nH]c(-c4cccc(CN(C)C)c4)cc23)c(-c2ccc(NC(=O)N(C)C)cc2)n1
Procedure, shortened: as §1

[13] = compound: CN1CCC(CNc2ccc3ncc(-c4cccc(OC(F)(F)F)c4)n3n2)CC1
Procedure, shortened: as §1

saracatinib = compound: CN1CCN(CCOc2cc(OC3CCOCC3)c3c(Nc4c(Cl)ccc5c4OCO5)ncnc3c2)CC1 [saracatinib]
Procedure, shortened: as §1

sotrastaurin = compound: CN1CCN(c2nc(C3=C(c4c[nH]c5ccccc45)C(=O)NC3=O)c3ccccc3n2)CC1 [sotrastaurin]
Procedure, shortened: as §1

vemurafenib = compound: CCCS(=O)(=O)Nc1ccc(F)c(C(=O)c2c[nH]c3ncc(-c4ccc(Cl)cc4)cc23)c1F [vemurafenib]
Procedure, shortened: as §1

ibrutinib = compound: C=CC(=O)N1CCC[C@@H](n2nc(-c3ccc(Oc4ccccc4)cc3)c3c(N)ncnc32)C1 [ibrutinib]
Procedure, shortened: as §1

barasertib = compound: CCN(CCCOc1ccc2c(Nc3cc(CC(=O)Nc4cccc(F)c4)[nH]n3)ncnc2c1)CCOP(=O)(O)O [barasertib]
Procedure, shortened: as §1

Measured: log2 fold change

RSL24D1 (UniProt Q9UHA3)
inactive: [1] -0.057 | ralimetinib -0.055 | [2] -0.009 | [3] -0.123 | [4] -0.033 | [5] -0.002 | [6] 0.101 | [7] -0.021 | [8] 0.03 | [9] 0.039 | [10] 0.195 | volasertib 0.01 | [11] -0.006 | [12] 0 | [13] -0.094 | saracatinib 0.049 | sotrastaurin -0.201

RTL8C (UniProt A6ZKI3)
inactive: ralimetinib -0.051 | [2] -0.064 | [3] 0.034 | [4] 0.018 | [5] -0.005 | [6] -0.066 | [7] -0.045 | vemurafenib 0.049 | [10] -0.168 | [11] 0.04 | saracatinib -0.178 | sotrastaurin 0.065

RSRP1 (UniProt Q9BUV0)
inactive: [5] 0.173 | saracatinib 0.016

RTN4 isoform 3 (UniProt Q9NQC3)
inactive: [10] 0.144

RPS6KB2 (UniProt Q9UBS0)
inactive: [1] 0.185 | [3] -0.002 | [4] -0.011 | [5] -0.062 | [6] -0.023 | [8] -0.327 | [9] 0.037 | [10] -0.117 | volasertib 0.083 | [12] 0.001 | [13] -0.117 | saracatinib 0.008 | sotrastaurin 0.149

S100A7A (UniProt Q86SG5)
inactive: [3] -0.037 | [6] 0.301 | sotrastaurin -0.205

RSC1A1 (UniProt Q92681)
inactive: ibrutinib -0.07 | [4] -0.209 | [5] -0.441 | [6] -0.083 | barasertib 0.009 | saracatinib 0.139 | sotrastaurin 0.053

RRP36 (UniProt Q96EU6)
inactive: [1] 0.014 | ralimetinib 0.011 | [2] 0.016 | [3] 0.082 | [5] -0.067 | [6] 0.108 | [7] -0.027 | [8] 0.07 | vemurafenib -0.041 | [9] 0.038 | [10] 0.169 | volasertib -0.023 | [11] 0.012 | saracatinib 0.026 | sotrastaurin 0.138

S100A1 (UniProt P23297)
inactive: [1] 0.005 | ralimetinib 0.001 | [2] -0.049 | [3] 0.024 | [4] 0.274 | [5] 0.076 | [6] -0.022 | [7] -0.009 | [8] -0.023 | vemurafenib -0.044 | [9] -0.005 | [10] 0.027 | volasertib 0.082 | [11] 0.028 | [12] 0.007 | [13] -0.021 | saracatinib 0.052 | sotrastaurin -0.139

RTN4R (UniProt Q9BZR6)
inactive: [3] 0.038

S100A12 (UniProt P80511)
inactive: vemurafenib -0.034
